Reference: paper PMC12334247

Tests used:
Assay in all cases: two-hybrid; yeast strain PJ694-a; fusions to AD (pDEST22) and BD (pDEST32); -Leu/-Trp selects co-transformation, -Leu/-Trp/-His/-Ade selects for strong interaction
[1] = target: T1, ORC4 (origin recognition complex subunit 4), yeast two-hybrid fusion (Arabidopsis thaliana) (UniProt Q6EWX1)
T1 sequence: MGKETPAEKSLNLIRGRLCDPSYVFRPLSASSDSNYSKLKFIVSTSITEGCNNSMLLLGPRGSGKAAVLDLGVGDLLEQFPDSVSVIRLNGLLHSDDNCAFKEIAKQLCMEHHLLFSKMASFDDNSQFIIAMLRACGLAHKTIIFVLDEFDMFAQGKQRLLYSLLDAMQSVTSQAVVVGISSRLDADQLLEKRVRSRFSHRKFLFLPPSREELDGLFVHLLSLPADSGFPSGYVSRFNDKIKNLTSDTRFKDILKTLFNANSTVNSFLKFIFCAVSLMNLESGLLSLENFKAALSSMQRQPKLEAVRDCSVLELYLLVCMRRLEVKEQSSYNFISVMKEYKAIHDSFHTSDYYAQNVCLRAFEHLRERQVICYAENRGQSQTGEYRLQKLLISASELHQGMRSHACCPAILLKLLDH

[2] = target: T2, KIN11 (SnRK1α2), yeast two-hybrid fusion (Arabidopsis thaliana) (UniProt P92958)
T2 sequence: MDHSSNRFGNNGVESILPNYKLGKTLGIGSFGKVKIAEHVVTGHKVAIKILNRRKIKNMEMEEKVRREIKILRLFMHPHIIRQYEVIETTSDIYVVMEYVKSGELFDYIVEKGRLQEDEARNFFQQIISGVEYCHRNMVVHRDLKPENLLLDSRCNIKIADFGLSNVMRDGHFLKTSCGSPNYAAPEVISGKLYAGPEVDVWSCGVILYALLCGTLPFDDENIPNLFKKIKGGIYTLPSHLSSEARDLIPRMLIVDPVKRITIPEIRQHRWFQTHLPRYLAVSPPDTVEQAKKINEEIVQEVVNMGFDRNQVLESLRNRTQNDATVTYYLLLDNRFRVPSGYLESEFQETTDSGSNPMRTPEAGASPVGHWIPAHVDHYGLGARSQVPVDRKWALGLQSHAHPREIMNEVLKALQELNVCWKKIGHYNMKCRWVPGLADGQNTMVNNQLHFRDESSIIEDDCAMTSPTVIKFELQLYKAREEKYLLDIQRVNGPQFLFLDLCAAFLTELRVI

[3] = target: T3, ORC2 (origin recognition complex subunit 2), yeast two-hybrid fusion (Arabidopsis thaliana) (UniProt Q38899)
T3 sequence: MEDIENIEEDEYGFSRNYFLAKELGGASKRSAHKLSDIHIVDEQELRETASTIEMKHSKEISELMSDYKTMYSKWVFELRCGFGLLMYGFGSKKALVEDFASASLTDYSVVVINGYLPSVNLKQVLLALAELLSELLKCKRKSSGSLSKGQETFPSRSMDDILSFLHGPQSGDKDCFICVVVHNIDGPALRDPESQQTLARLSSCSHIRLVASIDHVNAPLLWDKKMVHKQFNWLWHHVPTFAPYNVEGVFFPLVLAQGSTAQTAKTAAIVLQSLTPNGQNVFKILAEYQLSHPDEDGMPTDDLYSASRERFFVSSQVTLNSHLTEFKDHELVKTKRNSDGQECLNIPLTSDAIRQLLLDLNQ

[4] = target: T4, KIN10 (SnRK1α1), yeast two-hybrid fusion (Arabidopsis thaliana) (UniProt Q38997)
T4 sequence: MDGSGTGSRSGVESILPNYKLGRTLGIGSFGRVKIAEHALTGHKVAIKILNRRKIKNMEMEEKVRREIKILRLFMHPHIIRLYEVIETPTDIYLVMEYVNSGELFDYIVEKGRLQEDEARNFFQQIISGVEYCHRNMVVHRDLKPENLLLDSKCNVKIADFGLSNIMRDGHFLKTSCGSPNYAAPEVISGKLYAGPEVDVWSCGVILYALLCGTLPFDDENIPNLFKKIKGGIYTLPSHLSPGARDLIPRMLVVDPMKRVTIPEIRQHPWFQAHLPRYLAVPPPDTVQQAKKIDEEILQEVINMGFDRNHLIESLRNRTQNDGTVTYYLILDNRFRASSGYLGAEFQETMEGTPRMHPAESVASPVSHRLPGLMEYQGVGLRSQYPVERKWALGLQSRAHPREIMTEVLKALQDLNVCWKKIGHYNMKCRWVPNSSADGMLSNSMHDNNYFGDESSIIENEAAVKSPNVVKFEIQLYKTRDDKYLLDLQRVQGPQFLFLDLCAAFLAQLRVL

[5] = target: T5, ARIA, an ABAP1 homolog, yeast two-hybrid fusion (Arabidopsis thaliana) (UniProt B9DHT4)
T5 sequence: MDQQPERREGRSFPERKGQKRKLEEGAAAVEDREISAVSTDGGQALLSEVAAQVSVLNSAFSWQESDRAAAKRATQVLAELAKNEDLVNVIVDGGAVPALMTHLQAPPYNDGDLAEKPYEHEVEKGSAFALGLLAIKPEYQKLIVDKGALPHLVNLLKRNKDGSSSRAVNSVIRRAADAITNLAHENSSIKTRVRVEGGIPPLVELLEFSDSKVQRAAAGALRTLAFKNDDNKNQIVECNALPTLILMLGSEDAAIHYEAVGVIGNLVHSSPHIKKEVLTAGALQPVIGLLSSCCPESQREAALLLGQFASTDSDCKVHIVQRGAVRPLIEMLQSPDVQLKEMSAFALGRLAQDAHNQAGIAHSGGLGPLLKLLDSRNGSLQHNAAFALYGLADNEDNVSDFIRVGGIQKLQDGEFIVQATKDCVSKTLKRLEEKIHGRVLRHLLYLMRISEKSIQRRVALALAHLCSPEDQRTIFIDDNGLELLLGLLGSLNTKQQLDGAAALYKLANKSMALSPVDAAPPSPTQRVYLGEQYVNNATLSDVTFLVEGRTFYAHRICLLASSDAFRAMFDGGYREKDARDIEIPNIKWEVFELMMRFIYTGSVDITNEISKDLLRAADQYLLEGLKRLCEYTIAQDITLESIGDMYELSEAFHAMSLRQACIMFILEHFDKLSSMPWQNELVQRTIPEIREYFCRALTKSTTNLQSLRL

binding [1]: no binding
binding [2]: no binding
binding [3]: no binding
binding [4]: binds
binding [5]: no binding
Substance: ABAP1 interacting protein 10 (AIP10), yeast two-hybrid fusion (Arabidopsis thaliana)

No constants are given. Whether binding was seen depends on the method and setting. For some assays here: A result given as binding can be weak or reduced; the word gives no strength. Where a sequence is shown, tags or fusion partners need not be part of it.
